Assay results as given in patent US20250205259A1, “CLASS OF 7-((FIVE-MEMBERED HETEROCYCLIC)METHYL)-8-CARBOXYLIC ACID-BENZO CYCLIC BORATE DERIVATIVES AND USES THEREOF” (priority 2022, published 2025).
Some results were stated once for a whole list of compounds, not compound by compound.

Sequences of proteins named here, by UniProt entry; tags and fusion partners are left off. Residues count along the entry.
UniProt C7C422, 29-270 limits assumed: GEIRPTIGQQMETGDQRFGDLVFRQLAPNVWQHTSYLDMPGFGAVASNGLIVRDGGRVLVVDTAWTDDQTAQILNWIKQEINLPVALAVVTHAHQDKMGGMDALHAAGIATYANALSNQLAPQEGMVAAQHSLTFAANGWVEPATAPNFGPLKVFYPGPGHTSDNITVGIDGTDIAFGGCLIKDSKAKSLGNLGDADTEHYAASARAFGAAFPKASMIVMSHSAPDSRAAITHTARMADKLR

Legend:
NDM-1 = NDM-1 (Klebsiella pneumoniae, UniProt C7C422); experiment: Inhibitory activity on MBL, fluorescent substrate FC-5; assay type: biochemical; details: read-out: inhibitory activity at a nanomolar-level on NDM-1
VIM-1 = VIM-1 (Pseudomonas aeruginosa, UniProt A0A0F7KYQ8); experiment: as above; assay type: biochemical; details: VIM-1 and/or VIM-2; read-out: inhibitory activity at a nanomolar-level on VIM-1 and/or VIM-2

In the case of O=C(O)c1c(Cn2cc3c(n2)CNC3)ccc2c1OB(O)CC2 [Compound 56-Na], the IC50 (NDM-1) is reported as < 1000 nM and the IC50 (VIM-1) is reported as < 1000 nM.
